## Results of single-concentration screens

Source: ChEMBL document CHEMBL3988442, “University of Dundee, Small-Polar-MMV Screening Library” (2021).

T. brucei: 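Whole-parasite assay of Trypanosoma brucei over 72 hours; the read-out is not stated. Compounds at 30 µM. The record gives no direction; compounds that gave an IC50 in retests scored well above the rest, so higher reads as stronger inhibition. Values scatter widely below zero; nearly all retest evidence comes from the higher of the two concentrations used. Size under these conditions: about 64,000 compounds, about 940 of them at 50% or above in at least one test.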
Leishmania in macrophages: 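Cell assay of Leishmania donovani living inside macrophages; the read-out is not stated. Compounds at 30 µM. Direction is inferred from retests: higher values go with stronger inhibition. Size under these conditions: about 69,000 compounds, about 1,000 of them at 50% or above in at least one test.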
Toxoplasma: 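Assay of Toxoplasma gondii numbers, read through their beta-galactosidase reporter with a colour substrate. Tested at 10 µM. The record gives no direction; the compounds picked for IC50 retests had high values, so higher reads as fewer parasites. About 67,000 compounds were tested under these conditions; 0.38% (about 260) showed 50% or more at least once.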

The filed quantity is “Percent Effect” (%). The controls that fix the scale are not given in the record; negative values are as filed. The compounds are a random part of those screened. Two or more numbers in one place are separate tests of the same structure; such repeats can differ widely.

compound: COc1cc(COCC2CCN(Cc3cccnc3)CC2)cc(OC)c1.O=C(O)C(=O)O
T. brucei: -32.35
Leishmania in macrophages: 15.24
Toxoplasma: -26.12

compound: COc1cccc(CN2CCC3(CC2)CCN(c2ncccn2)C3)c1.O=C(O)C(F)(F)F.O=C(O)C(F)(F)F
T. brucei: -27.12
Leishmania in macrophages: 15.94 and -4.65
Toxoplasma: -6.11

compound: Cc1ncc2c(n1)C1(CCN(C(=O)C3CC3)CC1)OCC2.Cl
T. brucei: -0.7957
Leishmania in macrophages: 35.33
Toxoplasma: 4.369

compound: N#Cc1cccnc1OC1CCN(S(=O)(=O)c2ccc(Br)cc2)CC1
T. brucei: -14.54
Leishmania in macrophages: -8.944
Toxoplasma: 2.386

compound: CSc1cccc(CN(C)C(=O)Cn2ncc(N(C)C)cc2=O)c1
T. brucei: 37.87
Leishmania in macrophages: 6.293
Toxoplasma: -6.375

compound: COc1ccccc1N1CCC(CNS(=O)(=O)c2c(C)nn(C)c2C)C1 (stereo not shown)
T. brucei: -11.19
Leishmania in macrophages: -10.8
Toxoplasma: 0.9119

compound: c1ccc(N2CCN(Cc3cnc(C4CCCCO4)nc3)CC2)nc1 (stereo not shown)
Leishmania in macrophages: 6.673
Toxoplasma: 14.6

compound: CC(C)n1cnnc1CN(C)C(=O)CCn1cnc2ccccc2c1=O
T. brucei: -22.38
Leishmania in macrophages: 11.96
Toxoplasma: 10.77

compound: CC(C)c1cc(Br)ccc1NC(=O)NCC(O)CO (stereo not shown)
T. brucei: -2.508
Leishmania in macrophages: -15.73
Toxoplasma: 1.748

compound: O=C(Nc1ccccc1F)C1CSCN1C(=O)CCc1ccco1 (stereo not shown)
T. brucei: 10.34
Leishmania in macrophages: -8.604
Toxoplasma: -6.028

compound: Cn1cnnc1SC1CCc2ccccc2NC1=O (stereo not shown)
T. brucei: -32.06
Leishmania in macrophages: -15.35
Toxoplasma: -20.32

compound: CS(=O)(=O)N1CCC2(CCCN(CCCc3ccccc3)C2=O)C1 (stereo not shown)
T. brucei: -60.65
Leishmania in macrophages: -6.724
Toxoplasma: -1.869

compound: Cn1ccnc1CN1CCOCC(Cc2ccccn2)C1 (stereo not shown)
T. brucei: 39.65
Leishmania in macrophages: 18.34
Toxoplasma: -8.787

compound: COCCn1ccnc1C1CCCN(C(=O)CSCC2CC2)C1 (stereo not shown)
T. brucei: -15.15
Leishmania in macrophages: 26.67
Toxoplasma: 12.97

compound: O=C(C[S+]([O-])Cc1c(Cl)cccc1Cl)N1CCc2sccc2C1 (stereo not shown)
T. brucei: 10.41
Leishmania in macrophages: 17.43
Toxoplasma: 4.407

compound: CCN1C(=O)C2(CCOCC2)c2cc(NC(=O)c3cnoc3C)ccc21
T. brucei: -28.33
Leishmania in macrophages: 10.96
Toxoplasma: 6.45

compound: CCn1cc(CN(C)S(=O)(=O)c2ccc(C)c(C)c2)cn1
T. brucei: -12.08
Leishmania in macrophages: 17.1
Toxoplasma: 6.128

compound: CN(CC(=O)NCC(F)(F)F)C(=O)c1ccc(C(=O)OC(C)(C)C)cc1
T. brucei: 14.69
Leishmania in macrophages: 16.54
Toxoplasma: 3.358

compound: CN(C)S(=O)(=O)N1CCN(c2ccnc(N3CCCC3)n2)CC1
T. brucei: -7.761
Leishmania in macrophages: 40.74
Toxoplasma: -2.512

compound: CCc1nc(CC(=O)N2CCN(c3cnccn3)CC2)cs1
T. brucei: 26.81
Leishmania in macrophages: -5.107
Toxoplasma: 1.181

compound: CCc1n[nH]c(=O)c(C(=O)N2CCOC3(CCCC3)C2)c1CC
T. brucei: -15.95
Leishmania in macrophages: -15.5
Toxoplasma: -15.29

compound: CCn1ccnc1CN1CCCN(C(=O)Cc2ccc(C)cc2)CC1
Leishmania in macrophages: 16.96
Toxoplasma: 8.848

compound: COC1COC2(CCN(Cc3ccc(Cl)cc3)CC2)C1.O=C(O)C(F)(F)F (stereo not shown)
T. brucei: -29.3
Leishmania in macrophages: 33.4
Toxoplasma: 13.42

compound: O=S(=O)(c1ccc(Cl)s1)N1CCCn2ncnc21
T. brucei: -10.5
Leishmania in macrophages: 44.24
Toxoplasma: -3.902

compound: COc1ccc(F)cc1-c1ccccc1CC1CNCCNC1=O.Cl (stereo not shown)
T. brucei: -18.15
Leishmania in macrophages: -20.6
Toxoplasma: 23.92

compound: CCc1ccc(C(=O)N(CC(F)(F)F)C2CCCOC2)o1 (stereo not shown)
T. brucei: -35.62
Leishmania in macrophages: 26.34
Toxoplasma: -9.718

Once more, the final 2:

compound,T. brucei,Leishmania in macrophages,Toxoplasma
COc1ccc(F)cc1-c1ccccc1CC1CNCCNC1=O.Cl (stereo not shown),-18.15,-20.6,23.92
CCc1ccc(C(=O)N(CC(F)(F)F)C2CCCOC2)o1 (stereo not shown),-35.62,26.34,-9.718